Experimental data from PubChem BioAssay AID651660 (Broad Institute, 2012).
Several values for one entry are separate records, joined by “and”; a condition that tells them apart may be missing. Equal values may be shown once. Screen size: about 1,900 compounds; about 15 (0.8%) were called active.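 How the source made its calls: active means every replicate shows at least 50% inhibition; inconclusive means mean inhibition at least 50% but some replicate below; inactive means the rest.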 The list shows a part of the results.

Chains of the proteins cited; added tags and fusions are not shown. Lines headed by an entry give the natural chain unless they say otherwise; changes in a name come on top.
UniProt P43351: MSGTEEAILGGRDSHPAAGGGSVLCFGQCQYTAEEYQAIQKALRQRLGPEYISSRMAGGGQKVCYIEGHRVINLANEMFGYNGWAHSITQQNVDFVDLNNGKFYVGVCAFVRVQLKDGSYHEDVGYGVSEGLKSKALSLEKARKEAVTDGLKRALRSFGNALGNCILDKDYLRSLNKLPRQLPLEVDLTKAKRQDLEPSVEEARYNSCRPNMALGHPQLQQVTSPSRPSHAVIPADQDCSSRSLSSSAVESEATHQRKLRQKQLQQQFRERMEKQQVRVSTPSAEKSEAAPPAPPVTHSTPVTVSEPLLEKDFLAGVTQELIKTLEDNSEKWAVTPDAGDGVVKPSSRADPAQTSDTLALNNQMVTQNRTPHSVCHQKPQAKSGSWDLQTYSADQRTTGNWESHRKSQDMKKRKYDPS

Each molecule was assayed against DNA repair protein RAD52 homolog (Homo sapiens) (UniProt P43351) (assay: inhibition of RAD52-mediated strand annealing – biochemical, FRET, single point, primary screen (AID 651660;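 further: 0% = median of neutral control wells and 100% = median of positive control wells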)). Conditions: Recombinant RAD52 ssDNA annealing, FRET fluorescence, 30 min; at 18.7 µM; hits give high values.

COc1ccc(CCCC(=O)O)c(C)c1 was tested. Which inhibition did it give?
The inhibition was inactive: -12.7%.

For CCOC(=O)c1cc2cc3ccccc3cc2[nH]1, which inhibition is on record?
The inhibition was inactive: -86%.

Which inhibition does the source give for COc1ccc(CNC(=O)C2CCN(C(=O)[C@@H](CC(C)C)NC(=O)OC(C)(C)C)CC2)cc1 here?
Its inhibition is inactive: 2.06%.

How did the inhibition turn out when CC(C)(CO)CNC(=O)CC1C(=O)NCCN1CC(c1ccccc1)c1ccccc1 (centres undefined) was run?
Its inhibition is inactive: -15.5%.

For CCOc1cc(C=O)ccc1OCCSc1ccc(C)cc1, which inhibition is on record?
Its inhibition is inactive: 2.25%.

Which inhibition does the source give for COCC1CCCN(Cc2cn[nH]c2-c2cc3ccccc3o2)C1 (centres undefined) here?
Its inhibition is inactive: 0.195%.

O=C1OC(c2ccc(O)cc2)(c2ccc(O)cc2)c2ccccc21 was tested. Which inhibition did it give?
Its inhibition is inactive: -2.96%.

For Cc1ccc(N(CC2=NCCN2)c2cccc(O)c2)cc1, which inhibition is on record?
Its inhibition is inactive: -2.03% and inactive: -1.72% and inactive: -1.9%.

How did the inhibition turn out when O=Cc1ccc(OC(=O)c2cccnc2)cc1 was run?
Its inhibition is inactive: -1.95%.

How did the inhibition turn out when O=C(CN1CCN(Cc2ccccc2)CC1)N1CCCc2c1c(=O)oc1ccc(O)cc21 was run?
Its inhibition is inactive: 11.7%.

For COc1ccccc1C1(CC(=O)N2CCCCC2)CCOC(C(C)C)C1 (centres undefined), which inhibition is on record?
The inhibition was inactive: 7.87%.

How did the inhibition turn out when Cn1c(=O)[nH]c(=O)c2c1ncn2CCN1CCOCC1 was run?
The inhibition was inactive: -9.6%.

For O=C(NCCO)c1ccc(Cl)c(Cl)c1, which inhibition is on record?
The inhibition was inactive: 11%.

COc1ccc(N2CCN(C(=S)NCc3ccccc3)CC2)cc1 was tested. Which inhibition did it give?
The inhibition was inactive: -1.31%.

N#Cc1cc2c([nH]c1=O)CCCC2 was tested. Which inhibition did it give?
Its inhibition is inactive: 4.5%.

Which inhibition does the source give for COc1ccc(C=NCC2COc3ccccc3O2)cc1OC (centres undefined) here?
Its inhibition is inactive: 6.1%.

c1ccc(CC2=NCCN2)cc1 was tested. Which inhibition did it give?
Its inhibition is inactive: -6.79%.

How did the inhibition turn out when O=C(Nc1ccc(C(=O)NC2CCCCC2)cc1)c1cccnc1 was run?
The inhibition was inactive: -12%.

For O=C(NC1CCCCC1)N1CCc2[nH]c3ccccc3c2C1, which inhibition is on record?
Its inhibition is inactive: -7.75%.

How did the inhibition turn out when CCOC(=O)C(=O)N1CCN(c2ccccc2OC)CC1 was run?
Its inhibition is inactive: -2.13%.

How did the inhibition turn out when CC(C)(Oc1ccc(CCNC(=O)c2ccc(Cl)cc2)cc1)C(=O)O was run?
Its inhibition is inactive: -4.68%.

With OCCN1CCN(CCCN2c3ccccc3Sc3ccc(C(F)(F)F)cc32)CC1 as the molecule, how does the inhibition read?
The inhibition was active: 65.2%.

With CN(C)c1ccc(O)c2c1CC1CC3[C@@H](N(C)C)C(=O)C(C(N)=O)=C(O)[C@]3(O)C(=O)C1=C2O (some centres undefined) as the molecule, how does the inhibition read?
Its inhibition is inactive: 39.1%.

For CC(=O)OCC(=O)[C@H]1CC[C@H]2[C@@H]3CC=C4C[C@@H](O)CC[C@]4(C)[C@H]3CC[C@]12C, which inhibition is on record?
Its inhibition is inactive: -2.28%.

With O=C(O)C1Cc2ccccc2CN1S(=O)(=O)c1ccccc1 (centres undefined) as the molecule, how does the inhibition read?
Its inhibition is inactive: -4.56%.

With Clc1ccc2c(c1)C(N1CCNCC1)=Nc1ccccc1O2 as the molecule, how does the inhibition read?
Its inhibition is inactive: 2.92%.

With O=C1c2ccccc2C(=O)C1c1ccccc1 as the molecule, how does the inhibition read?
The inhibition was inactive: -1.1%.

For CCc1cc(=O)oc2cc(OCC=C(C)C)ccc12, which inhibition is on record?
Its inhibition is inactive: 6.25%.

For CC(C)=CC/C=C1\CCC(C(=O)O)C(C(=O)O)C1 (centres undefined), which inhibition is on record?
The inhibition was inactive: -9.36%.

How did the inhibition turn out when O=C(CN1C(=O)/C(=C/c2cccc(Br)c2)SC1=S)Nc1cccnc1 was run?
Its inhibition is inactive: -38.2%.

Which inhibition does the source give for N/C(=N\OS(=O)(=O)c1ccc2ccccc2c1)c1cccnc1 here?
Its inhibition is inactive: -4.19%.

How did the inhibition turn out when CCOC(=O)N1CCC(=C2c3ccc(Cl)cc3CCc3cccnc32)CC1 was run?
Its inhibition is inactive: -6.11%.

For Cc1ccc2[nH]c(=O)c(Cc3ccccc3)c(O)c2c1, which inhibition is on record?
Its inhibition is inactive: -9.59%.

CC1CCN(C(=O)Oc2ccccc2)CC1 was tested. Which inhibition did it give?
The inhibition was inactive: 2.36%.

How did the inhibition turn out when COCCCC/C(=N\OCCN)c1ccc(C(F)(F)F)cc1 was run?
The inhibition was inactive: 14.2%.

How did the inhibition turn out when C[C@]12CCC(=O)C=C1CC[C@@H]1[C@@H]2C(=O)C[C@@]2(C)[C@H]1CC[C@]2(O)C(=O)CO was run?
Its inhibition is inactive: 5.33%.

Which inhibition does the source give for O=C(O)CCSc1nc2ccccc2s1 here?
The inhibition was inactive: -17.9%.

Which inhibition does the source give for CC(C)(C)C(=O)Nc1cccc(OC(F)(F)C(F)Cl)c1 (centres undefined) here?
The inhibition was inactive: 15.6%.

For C[C@@H]1C[C@H]2[C@@H]3C[C@H](F)C4=CC(=O)C=C[C@]4(C)[C@@]3(F)[C@@H](O)C[C@]2(C)[C@@]1(O)C(=O)CO, which inhibition is on record?
Its inhibition is inactive: 12.3%.

For O=C(O)Cc1ccc(-c2ccccc2)cc1, which inhibition is on record?
The inhibition was inactive: -6.53%.

CCOC(=O)C1=C2c3ccc4ccccc4c3CC(C)(C)N2C(=O)C1=O was tested. Which inhibition did it give?
The inhibition was inactive: -12.6%.

For O=C(/C=C/c1ccc(F)cc1)N1CC[C@@]2(O)CCCC[C@H]2C1, which inhibition is on record?
The inhibition was inactive: 8.57%.

O=C1N=c2ccccc2=C1c1[nH]c(=S)[nH]c1O was tested. Which inhibition did it give?
Its inhibition is inactive: 14.8%.

How did the inhibition turn out when CCCCCCCCCC(=O)OCC(O)CO (centres undefined) was run?
Its inhibition is inactive: 5.35%.

COc1ccccc1N1C(=O)C2CC(C)=C(C)CC2C1=O (centres undefined) was tested. Which inhibition did it give?
Its inhibition is inactive: -0.714%.

For O=C1C(O)CC2c3ccccc3CC3(CCCC3)N12 (centres undefined), which inhibition is on record?
The inhibition was inactive: -23%.

How did the inhibition turn out when CN1CCN(C2=Nc3ccccc3Oc3ccc(Cl)cc32)CC1 was run?
Its inhibition is inactive: 6.55%.

Which inhibition does the source give for Cc1cccc(N2C(=O)C3C(c4ccccc4)OC4(C(=O)c5ccccc5C4=O)C3C2=O)c1 (centres undefined) here?
Its inhibition is inactive: -11.3%.

Which inhibition does the source give for Cc1nc2ccccc2c(=O)n1N here?
The inhibition was inactive: -4.82%.

COc1ccc(OC)c(-c2oc3ccccc3c(=O)c2O)c1 was tested. Which inhibition did it give?
Its inhibition is inactive: 0.777%.

For CCN(CC)CCOC(=O)C1(C2CCCCC2)CCCCC1, which inhibition is on record?
The inhibition was inactive: -19.4%.

Which inhibition does the source give for N#CCC(N)=C(C#N)C#N here?
The inhibition was inactive: -37.2%.

How did the inhibition turn out when Cc1ccc2c(c1)c1c(n2C)C(=O)CCC1 was run?
Its inhibition is inactive: 8.41%.

Which inhibition does the source give for CN(C)CCCN1c2ccccc2Sc2ccc(C(F)(F)F)cc21 here?
Its inhibition is inactive: 29.1%.

With O=C1C2CC=C(Cl)CC2C(=O)N1CCc1c[nH]c2ccccc12 (centres undefined) as the molecule, how does the inhibition read?
The inhibition was inactive: -12.5%.

For CCNC1=C(Cl)C(=O)c2ccccc2C1=O, which inhibition is on record?
Its inhibition is inactive: 9.01%.

With COC(=O)C1=C(C)NC(C)=C([N+](=O)[O-])C1c1ccccc1C(F)(F)F (centres undefined) as the molecule, how does the inhibition read?
Its inhibition is inactive: 4.19%.

For Nc1ccc(-c2nc3ncccc3o2)c(Cl)c1, which inhibition is on record?
Its inhibition is inactive: 2.78%.

How did the inhibition turn out when C/C=C/c1ccc(OCCCCN2CC(C)CC(C)C2)c(OC)c1 (centres undefined) was run?
Its inhibition is inactive: 1.05%.

Which inhibition does the source give for O=C(Cc1ccc(Br)cc1)c1ccc(O)cc1O here?
Its inhibition is inactive: 2.85%.

For CCn1cc(CN2N=C(C)CC2c2ccccc2)c(C)n1 (centres undefined), which inhibition is on record?
Its inhibition is inactive: -16.9%.

How did the inhibition turn out when CC[N+](C)(CC)CCOC(=O)C(O)(c1ccccc1)C1CCCCC1 (centres undefined) was run?
The inhibition was inactive: -4.94%.

Which inhibition does the source give for CCOc1ccccc1Oc1coc2cc(OCC(=O)O)ccc2c1=O here?
Its inhibition is inactive: -12.3%.

With CN(C)c1ccc(C(CN)c2c[nH]c3ccccc23)cc1 (centres undefined) as the molecule, how does the inhibition read?
Its inhibition is inactive: -2.21%.
